Test results published in patent publication US20220089727A1.
These are yes or no findings as the source states them, for the method shown. Some results given as binding are weak or reduced against the parent protein; the word gives no strength.

Protein sequences, listed by entry. Tags and fused reporters are not part of them. Lines headed by an entry give the natural chain unless they say otherwise; changes in a name come on top. Residues count along the entry.
UniProt Q08722: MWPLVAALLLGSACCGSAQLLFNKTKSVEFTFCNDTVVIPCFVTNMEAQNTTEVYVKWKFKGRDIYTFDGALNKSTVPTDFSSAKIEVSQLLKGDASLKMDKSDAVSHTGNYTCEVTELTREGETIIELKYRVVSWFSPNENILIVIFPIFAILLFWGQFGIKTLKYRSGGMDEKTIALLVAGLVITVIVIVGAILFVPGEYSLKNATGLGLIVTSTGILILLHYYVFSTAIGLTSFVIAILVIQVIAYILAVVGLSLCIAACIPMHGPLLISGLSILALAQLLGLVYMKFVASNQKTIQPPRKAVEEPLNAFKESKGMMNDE
CD47 on the surface of Jurkat cells: residues 19-323 of Q08722
human CD47 (analyte in the Biacore assay): residues 19-139 of Q08722

Columns and labels:
[1] = target: CD47 on the surface of Jurkat cells (human) (UniProt Q08722); assay: flow cytometry on Jurkat cells
[2] = target: CD47 on the surface of Jurkat cells (human) (UniProt Q08722); assay: FACS of clone supernatant on Jurkat cells
[3] = target: human CD47ECD-linker peptide-7his (human) (UniProt Q08722); assay: ELISA of clone supernatant on human CD47-his
[4] = target: monkey CD47ECD-linker peptide-7his (monkey); assay: ELISA of clone supernatant on monkey CD47-his
[5] = target: CD47 on the surface of Jurkat cells (human) (UniProt Q08722); assay: flow cytometry on Jurkat cells, hybridoma supernatant, goat anti-mouse IgG Fc FITC secondary antibody
[6] = target: human CD47-linker peptide-hIgG1Fc (human); assay: competition ELISA: human CD47-hFc coated, antibody titrated (3-fold from 20000 ng/mL, 7 points) and mixed with human SIRP-his, bound SIRP-his detected with anti-His-HRP
[7] = target: human CD47 (analyte in the Biacore assay) (human) (UniProt Q08722); assay: SPR (Biacore T200), antibody captured by anti-mouse Fc, human CD47 as analyte

| binding [1] | binding [2] | binding [3] | binding [4] | binding [5] | binding [6] | binding [7] | Binder |
| --- | --- | --- | --- | --- | --- | --- | --- |
| binds | binds | binds | binds | binds | binds |  | 059-1.30.1 (antibody, mouse IgG1, V domains shown) VH: EVQLQQSGPELVKPGASVRMSCKASGYTFTNYVMHWVKQKPGQGLEWIGYINPYNDGTKYSEKFKGKATLTSDKSSITAYMELSSLTSEDSAVYYCAKGGLFTFDYWGQGTTLTVSS VL: DVVMTQTPLSLPVSLGDQASISCRSSQSLVHSKGNTYLHWYLQKPGQSPKLLIYRVSNRFSGVPDRFSGSGSGTDFTLKISRVEAEDLGVYFCSQSTHVPFTFGSGTKLEIK |
|  |  |  | binds |  |  | binds | 059-1.82.1 (antibody, mouse IgG3, V domains shown) VH: EVQLQQSGPELVKPGASVKMSCKASGYTFTNYVMHWVKQKPGQGLEWIGYINPYNDGTNYNEKFKGKATLTSDKSSSTAYMELSSLTSEDSAVYYCAKGGWFSMDYWGQGTSVTVSS VL: DVVMTQTPLSLPVSLGDQASISCRSSQSLVHSNGKTYLQWYLQKPGQSPKLLIYKVSNRFSGVPDRFSGSGSGTDFTLKISRVEAEDLGVYFCSQSTHVYTFGGGTKLEIK |
|  |  |  | binds |  |  |  | 059-1.20.1 (antibody, mouse IgG1, V domains shown) VH: EVQLQQSGPELVKPGASVNMSCKASGYTFTNYFLHWVKQKPGQGLEWIGYINPYNDGTNYNENFKGKATLTSDKSSSTAYMELSSLTSEDSAVYYCAKGGWFSMDYWGQGTSVTVSS VL: DVVMTQTPLSLPVSLGDQASISCRSSQSLVHSNGKTYLQWYLQKPGQSPKLLIYKVSNRFSGVPDRFSGSGSGTDFTLKISRVEAEDLGVYFCSQSTHVYTFGGGTKLEIK |
